Data as given in paper PMC6708125.
These are yes or no findings as the source states them, for the method shown. In cells and extracts the contact can be indirect. Some results given as binding are weak or reduced against the parent protein; the word gives no strength. Where a sequence is shown, tags or fusion partners need not be part of it.

Chains of the proteins cited; added tags and fusions are not shown.
UniProt Q53GL0: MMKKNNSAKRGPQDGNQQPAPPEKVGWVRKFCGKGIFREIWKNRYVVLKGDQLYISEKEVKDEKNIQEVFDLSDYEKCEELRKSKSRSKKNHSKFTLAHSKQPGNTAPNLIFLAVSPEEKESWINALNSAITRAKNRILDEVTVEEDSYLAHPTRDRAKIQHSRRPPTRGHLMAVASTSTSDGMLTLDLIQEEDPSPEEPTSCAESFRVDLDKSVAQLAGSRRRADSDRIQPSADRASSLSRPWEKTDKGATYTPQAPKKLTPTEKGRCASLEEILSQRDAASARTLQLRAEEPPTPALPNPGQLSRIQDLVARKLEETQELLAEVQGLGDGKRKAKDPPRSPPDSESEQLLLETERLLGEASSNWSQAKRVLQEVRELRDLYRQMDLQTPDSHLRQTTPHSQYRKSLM

Target: T1, HA-labeled Nuclear factor E2-related factor 2 (HA-Nrf2) (UniProt Q16236)
T1 sequence: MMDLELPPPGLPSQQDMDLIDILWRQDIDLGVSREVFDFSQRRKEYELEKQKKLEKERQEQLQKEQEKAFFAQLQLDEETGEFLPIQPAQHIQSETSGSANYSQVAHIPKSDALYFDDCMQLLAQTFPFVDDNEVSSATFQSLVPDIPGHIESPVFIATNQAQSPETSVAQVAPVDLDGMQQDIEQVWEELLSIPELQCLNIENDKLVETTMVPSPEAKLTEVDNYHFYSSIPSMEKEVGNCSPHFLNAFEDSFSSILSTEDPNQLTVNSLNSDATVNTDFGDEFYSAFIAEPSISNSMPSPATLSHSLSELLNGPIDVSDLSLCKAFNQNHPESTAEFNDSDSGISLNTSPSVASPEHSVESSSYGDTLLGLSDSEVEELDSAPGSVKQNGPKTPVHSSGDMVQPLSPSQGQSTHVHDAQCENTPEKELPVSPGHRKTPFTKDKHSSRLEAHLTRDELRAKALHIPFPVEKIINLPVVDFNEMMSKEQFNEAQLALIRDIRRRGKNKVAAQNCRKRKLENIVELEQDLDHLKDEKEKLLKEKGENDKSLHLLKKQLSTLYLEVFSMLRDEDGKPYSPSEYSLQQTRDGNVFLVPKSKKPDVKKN
Assay: co-IP; Flag-CKIP-1 and HA-Nrf2 plasmids transfected into HRECs for 24 h; RIPA lysate incubated with protein A-Sepharose at 4 °C for 1 h; SDS-PAGE and blots with anti-Flag and anti-HA

In the case of “Flag-labeled Casein kinase 2 interacting protein-1 (Flag-CKIP-1) (from UniProt Q53GL0 1-409)”, the binding is reported as “binds”.
